Results: PubChem BioAssay AID1347426 (Functional Genomics Laboratory (NCATS/FGL), 2020)
The whole screen tested about 31,000 sequences, of which about 1,400 (4.5%) were called active.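 Rule for the calls: active = median seed-adjusted z-score above 1 or below -1; inactive = the rest.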 The list shows a part of the results.

Experiment: Novel Modifiers of Survival Motor Neuron (SMN) Protein: Gene Identification via Genome-wide siRNA Screen;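 note: luminescence tracks full-length SMN protein made from the SMN2 reporter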
Conditions: HEK293T SMN2-luciferase reporter, siRNA knockdown, 72 h; actives lie on both sides
Excerpt: Spinal muscular atrophy (SMA) is the most common neuromuscular autosomal recessive disorder and one of the leading genetic causes of infant death. SMA results from mutations inducing loss of function or deletion in the survival of motor neuron-1 gene (SMN1), leading to deficiency of the survival motor neuron (SMN) protein. Although a second nearly identical gene, SMN2, is retained in humans, its expression primarily produces an aberrantly spliced isoform that is largely unstable and quickly degraded. We performed a genome-wide RNAi screen using a cell-based reporter assay to identify genes and pathways that modulate SMN protein stability. The screen identified over 200 genes that led to the greatest increase or decrease in luciferase expression.
Using HEK293T cells stably expressing a luciferase reporter that combines the promoter and splicing based cassettes in tandem with the major portion of the native SMN2 cDNA with luciferase, we performed a genome-wide RNAi screen to identify modulators of SMN protein levels. Luciferase is expressed when full-length SMN protein is generated with luminescence signal proportional to SMN protein levels. Our luciferase-based reporter assay was used to screen Ambion Silencer Select Human Druggable Genome siRNA library (10418 genes, 3 unique siRNAs per gene) using lipid-based reverse transfection.
Briefly, 1 pmol of each siRNA was spotted to a well of a 384-well plate (Corning, Corning, NY) and 20 microL of serum-free DMEM containing […] of Lipofectamine RNAiMax (Life Technologies, Carlsbad, CA) was then added to each well. Transfected cells were maintained at 37 degrees C in 5% CO2 for 72 hours, 20 microL of ONE-Glo Reagent (Promega) was added to wells for luciferase quantification. Raw luminescence reads were normalized to Ambion(R) Silencer(R) Negative Control #2 siRNA, then log10 transformed. A robust statistical measure of median absolute deviation (MAD) to standardize siRNA activities from each screen. Common Seed Analysis was used to help prioritize clean hits as opposed to those appearing to arise from seed based off-target effects. Candidate modulators were defined as the genes having a MAD score greater than 1.0 or less than -1.0.

| Sequence | median seed-adjusted z-score |
| --- | --- |
| CAACAGCGAUUUUAGGAUATT against ARNTL2 | inactive: 0.102 |
| CCAUGAUGGUGACCCAGCATT against MYBPH | inactive: 0.0513 |
| GGAGUGGAAGCGUUUGGAATT against ZNF3 | inactive: -0.149 |
| CGUGGGUCACUGUUAAGAATT against CPXM2 | inactive: 0 |
| CGAUGGUACUGGAGAAGGATT against GLUL | inactive: -0.307 |
| CAUCCGAUAGAAUCCAGUUTT against KPNB1 | inactive: 0.165 |
| CAUGAUAACUGGGAUUUAATT against PON3 | inactive: -0.0823 |
| GUAUGGAGAUCUCUACGGATT against RYR3 | inactive: 0 |
| GCAUUGUUUUGAUGAGUAUTT against CDC7 | inactive: -0.236 |
| GCAUUACAGGCGUGCAGCATT against LBX2 | inactive: 0.538 |
| AGAGGUGGGCCGAACCAUATT against CST2 | inactive: -0.411 |
| GCAAUGAAGAGGACUAUGATT against ARIH2 | inactive: 0.0449 |
| GGAACUCUUUGCUGAAUUUTT against THOC4 | active: -1.54 |
| AGACCACCGUUAAUCCAGATT against NOVA1 | inactive: -0.486 |
| GGAGGCACCUCUCAAGAUATT against THRAP3 | inactive: -0.852 |
| CAAUGAUCCAGAAGAUAGATT against MGAT4C | inactive: 0.187 |
| GGGUUCAUCUGAUUGACCATT against SLC6A14 | inactive: 0 |
| GGGUCAACAGCAACUCGAATT against RAI1 | inactive: 0.113 |
| GGUCACUAGUGGAUUAUGATT against SNX6 | inactive: 0 |
| CCCAUGCUGCGUUCACCUATT against RBPMS2 | inactive: -0.485 |
| CCACCGUCUUCAAUGCCCATT against RNF5 | inactive: -0.0342 |
| GGAUUAGGGAUGCAGUUAATT against AVEN | inactive: 0.184 |
| AGAUCUGCAUGAAACAACATT against VPS16 | inactive: 0.306 |

| Sequence | median seed-adjusted z-score |
| --- | --- |
| GGAGAGCCUUUAGCAGUAATT against ZNF132 | inactive: -0.484 |
| GUAAUCUACUGGGACGGAATT against TP53 | inactive: 0.214 |
| CUAAGAGACUAAAUGCAAATT against SUCLG2 | inactive: -0.619 |
| CAAGAGCUUCCAAAACUUATT against ZNF75D | inactive: 0 |
| GCCUGAAAAGGACAGCUCATT against FAM53B | inactive: -0.00535 |
| GCUAGUUGAUCUCACGGUATT against TNIK | inactive: 0.154 |
| GGUUAUCACUGCGUUCCUATT against PHTF1 | inactive: 0.0129 |
| CCAAUCUGGUGACGAUUUATT against SP110 | inactive: -0.788 |
| GGGAGAUUCUCCAACUAAATT against SR140 | active: 1.16 |
| GAUCAGCAUUUGCAUGGAATT against MAP2K2 | inactive: -0.502 |
| GCACGAGCCGCAACGAAUATT against ELK3 | inactive: -0.16 |
| GAGUAGUUUUCAACGUAAUTT against ACSL3 | inactive: 0 |
| GCUCCAUAUGUCAACCGUATT against PLOD2 | inactive: -0.281 |
| GGUCAUAUAUUUCACACGATT against ADAMTS18 | inactive: 0.824 |
| GCAGAAUUGGAGACGGAAATT against DNALI1 | inactive: 0.699 |
| GGUGAUCGAUGAUGCCCAUTT against SYN3 | inactive: -0.729 |
| GGCAUCUACUCGUUCAGGATT against MEIS1 | inactive: 0 |
| GAAAGUGGAUGGUGCAACATT against FBXO27 | inactive: -0.286 |
| CUACGAUUCUGGUGGAAUATT against TRRAP | active: -1.25 |
| CGAUCGCGGUUUUAAUCGATT against PPP2R1B | inactive: -0.295 |
| CCAUGGACACAGAAGAUGUTT against ZP3 | inactive: 0.495 |
| CCUCGAUUCUUAAAGACGATT against RELN | inactive: 0.207 |
| GAUCCUCAGCUGUUAAGUATT against DCLK2 | inactive: -0.552 |

Reprinted at random: two records from the list.

| Sequence | median seed-adjusted z-score |
| --- | --- |
| GGUUAUCACUGCGUUCCUATT against PHTF1 | inactive: 0.0129 |
| GGAGAGCCUUUAGCAGUAATT against ZNF132 | inactive: -0.484 |

Later entries

| Sequence | median seed-adjusted z-score |
| --- | --- |
| GAGCCUACUUGGAUGUUAATT against PAPPA | inactive: -0.0169 |
| GCUGAUUCAUAGGAUCAAUTT against DBR1 | inactive: 0.438 |
| GGACUACCCUAUCAAGUAATT against EP300 | inactive: -0.2 |
| GCAGAGGUACUAAUACGGATT against MSH4 | inactive: 0 |
| CGUCCGGAAUGAUAGUCUUTT against YKT6 | inactive: -0.065 |
| GGAUUAAUCCACGAAUUGATT against EGF | inactive: 0.00831 |
| GGUCAGUUACCGCAUGUCATT against HSPB9 | inactive: 0.262 |
| GGAUCUAUCCAGGUAUAAATT against CACNA2D4 | inactive: -0.0464 |
| AAUUCCGCCUGGAACAAAATT against PDE6D | inactive: 0 |
| GGUACCUGCUGAUUCAGAATT against SLC2A5 | inactive: -0.429 |
| GUAUUGGUCUGUGAGCGAATT against SUCLA2 | inactive: -0.21 |
| GCAUAGCUCUCGAUAAGAATT against MYH4 | active: -1.8 |
| CCAUAUUCCCAUGCACAUUTT against FADS1 | inactive: -0.905 |
| GCUCAGUCAUGUACUGAAATT against ANTXR2 | inactive: -0.727 |
| GCAACAACUUCUUAGAGCATT against SMC3 | inactive: 0.507 |
| ACUUAUGACUAACUUCUUATT against GPR148 | inactive: 0 |
| CGAGUGUCAGUGAUCCUGATT against TDO2 | inactive: -0.141 |
| GGAUGACAGUCUCAUUGCATT against GON4L | inactive: 0.116 |
| GCAUCAAACAGAGUGAACUTT against APOC1 | inactive: 0 |
| GCUUUGCUGAGGUCUAUAATT against TGFBR2 | inactive: 0.8 |
| AGUGCUUCAUGUGCAGUGATT against PDLIM4 | inactive: -0.637 |
| GGUGAUUUAAUGAUCAGAATT against CNTN3 | inactive: 0.732 |
| CACUAGAGCUUUAGCAAAATT against TFEC | inactive: -0.0734 |

An excerpt of the results above, for reference:

| Sequence | median seed-adjusted z-score |
| --- | --- |
| GGUCAGUUACCGCAUGUCATT against HSPB9 | inactive: 0.262 |
| GGAUCUAUCCAGGUAUAAATT against CACNA2D4 | inactive: -0.0464 |
